Experimental data from publication doi:10.1101/2024.10.30.620894 (bioRxiv, 2024).
No constants are given. Whether binding was seen depends on the method and setting. Some entries that bind do so weakly or less than the wild type.

Assays:
[1] = target: T1, denatured rhodanese (D-Rho) (UniProt P00586); assay: SEC
T1 sequence: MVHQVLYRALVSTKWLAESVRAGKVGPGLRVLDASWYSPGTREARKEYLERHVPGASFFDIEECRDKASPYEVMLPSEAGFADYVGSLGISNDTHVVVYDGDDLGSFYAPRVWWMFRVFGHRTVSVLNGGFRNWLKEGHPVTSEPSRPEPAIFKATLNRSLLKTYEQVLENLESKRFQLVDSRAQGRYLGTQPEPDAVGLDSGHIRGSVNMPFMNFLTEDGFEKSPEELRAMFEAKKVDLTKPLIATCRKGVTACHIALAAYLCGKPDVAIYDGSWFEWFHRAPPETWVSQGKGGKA

[2] = target: wild-type clusterin (WT-Clu) (human) (UniProt P10909); assay: SEC
[3] = target: wild-type clusterin (WT-Clu) (human) (UniProt P10909); assay: flotation in an Optiprep density gradient

Binder	binding [1]	binding [2]	binding [3]
wild-type clusterin (WT-Clu) (natural protein, human, N-glycans (six in the whole protein) | N-glycans (six in the whole protein)) chain 1: DQTVSDNELQEMSNQGSKYVNKEIQNAVNGVKQIKTLIEKTNEERKTLLSNLEEAKKKKEDALNETRESETKLKELPGVCNETMMALWEECKPCLKQTCMKFYARVCRSGSGLVGRQLEEFLNQSSPFYFWMNGDRIDSLLENDRQQTHMLDVMQDHFSRASSIIDELFQDRFFTREPQDTYHYLPFSLPHRRPHFFFPKSRIVR chain 2: SLMPFSPYEPLNFHAMFQPFLEMIHEAQQAMDIHFHSPAFQHPPTEFIREGDDDRTVCREIRHNSTGCLRMKDQCDKCREILSVDCSTNNPSQAKLRRELDESLQVAERLTRKYNELLKSYQWKMLNTSSLLEQLNEQFNWVSRLANLTQGEDQYYLRVTTVASHTSDSDVPSGVTEVVVKLFDSDPITVTVPVEVSRKNPKFMETVAEKALQEYRKKHREE	binds	no binding (condition: at pH 5 (10 μM))	
denatured rhodanese (D-Rho) (enzyme, UniProt P00586 1-297) MVHQVLYRALVSTKWLAESVRAGKVGPGLRVLDASWYSPGTREARKEYLERHVPGASFFDIEECRDKASPYEVMLPSEAGFADYVGSLGISNDTHVVVYDGDDLGSFYAPRVWWMFRVFGHRTVSVLNGGFRNWLKEGHPVTSEPSRPEPAIFKATLNRSLLKTYEQVLENLESKRFQLVDSRAQGRYLGTQPEPDAVGLDSGHIRGSVNMPFMNFLTEDGFEKSPEELRAMFEAKKVDLTKPLIATCRKGVTACHIALAAYLCGKPDVAIYDGSWFEWFHRAPPETWVSQGKGGKA			binds
